# Results reported in PubChem BioAssay AID2685 (National Center for Advancing Translational Sciences (NCATS), 2010).
# This is one part of the list. These are further read-outs of the screen, such as a control signal, another cell line or another target. No call is given for them. Most of these compounds were active or inconclusive in the main read-out, so they are no random draw. Potencies come from curve fits of mixed quality, noted in brackets.
# Experiment: qHTS Assay for Lipid Storage Modulators in Drosophila S3 Cells;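 as to cell number change: cells counted by Cell Tracker Red CMTPX staining in the red channel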
# Settings: BODIPY lipid droplet fluorescence, 18-24 h; for cell number change: measured here: cell count max response, cells fed with added oleic acid
# In short: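 Drosophila S3 cells loaded with oleic acid (400 uM, as added) and compounds at several concentrations; lipid droplets imaged by 488-nm laser-scanning cytometry, 500–530 nm intensity and object ratio to cell channel. Percent activity normalized to 20 uM Triacsin C.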
# [1] = measured here: lipid fluorescence (Fed channel) AC50, cells fed with added oleic acid
# [2] = measured here: cell number channel AC50, cells fed with added oleic acid
SMILES,AC50 [1],cell number change [%],AC50 [2]
CC(C)Oc1cccc(C(=O)O)c1,"29.1 µM [falling, single point]",,
Nc1ncnc(Nc2ccccc2Cl)n1,"0.0731 µM [falling, partial curve, poor fit]",-24.9,
O=C(Nc1ccc(-c2nc3c(ccc4ccccc43)o2)cc1)c1ccco1,"0.58 µM [rising, partial curve, poor fit]",-14.3,"1.16 µM [rising, partial curve]"
CCC(C(=O)Nc1ccccc1N1CCCC1)c1ccccc1 (centres undefined),"6.51 µM [rising, single point]",14.6,
O=C(N/N=C/c1ccccn1)c1cc(-c2ccc(Cl)cc2)nc2ccccc12,"2.06 µM [rising, partial curve]",0.308,
COc1ccc2oc(=Nc3ccccc3)c(-c3nc4ccccc4[nH]3)cc2c1,"16.4 µM [falling, partial curve]",-39.1,"9.2 µM [falling, partial curve]"
CCOC(=O)c1c(-c2cccs2)csc1NC(=O)c1ccncc1,"0.366 µM [rising, full curve, poor fit]",-1.4,
Cc1nc2ccc(NC(=O)N3CCC(c4ccccc4)C3)cc2nc1C (centres undefined),"29.1 µM [rising, single point]",209,
O=C(Nc1nccs1)c1ccc(Br)c(S(=O)(=O)N2CCCC2)c1,,-56.9,"20.6 µM [falling, partial curve, poor fit]"
c1ccc(-c2cc3ccccc3[nH]2)cc1,"23.1 µM [falling, partial curve]",-22,
CCOc1ccc(Oc2ccc(Cl)cc2NC(=O)C2=COCCO2)cc1,,-3.36,
CC[C@@](C)(NS(=O)(=O)OCC(Cl)(Cl)Cl)c1ccccc1,"25.9 µM [rising, single point]",9.58,
O=[N+]([O-])c1cnccc1NC1CCCCC1,,-19.8,
N#C/C(=C/c1ccc(Sc2nc3ccccc3[nH]2)o1)c1ccccc1F,"0.259 µM [rising, full curve, poor fit]",0.804,"1.03 µM [rising, partial curve]"
COc1cccc(CN(C)C(=O)Cc2c[nH]c3ccccc23)c1,"4.61 µM [rising, full curve, poor fit]",19.4,
Cc1ccc(NCc2nnc(SCCN3CCCCC3)n2CC2CCCO2)c(C)c1 (centres undefined),"16.4 µM [rising, partial curve, poor fit]",-11.3,
CCCCOc1ccc(CNC(=O)NS(=O)(=O)c2ccc(OCC(C)C)cc2)cc1,,18.3,
CC(C)c1ccc(/C=N/Nc2cc(N3CCOCC3)nc(N3CCOCC3)n2)cc1,,12.1,
CCNc1nc(SC(C)C(=O)OC)nc(N2CCOCC2)n1 (centres undefined),,-24.7,"1.3 µM [falling, full curve, poor fit]"
O=C(CN(Cc1ccc(Br)cc1)S(=O)(=O)c1ccccc1)NCc1cccnc1,"3.55 µM [rising, single point]",1.66,

SMILES,AC50 [1],cell number change [%],AC50 [2]
N#CCCn1c(SCC(=O)NCC2CCCO2)nc2ccccc21 (centres undefined),"23.1 µM [falling, single point]",9.21,
CCOC(=O)c1ccccc1NC(=O)c1cccc2c1C(=O)N(C1CCN(C(=O)OCC)CC1)C2,"29.1 µM [rising, single point]",28.7,
CCc1nc(SCC(=O)N2CC(=O)Nc3ccccc32)c2c(C)c(C)sc2n1,"13 µM [falling, partial curve, poor fit]",-15.9,
NC(=O)C1CCN(C(=O)CN(c2cccc(C(F)(F)F)c2)S(=O)(=O)c2ccccc2)CC1,,-6.65,"0.0326 µM [falling, full curve, poor fit]"
COc1cc(/C=C(\CC(=O)O)c2nc3ccccc3s2)cc(OC)c1O,"6.51 µM [falling, single point]",29.4,
COc1ccc(CCNC(=O)CSc2ccc(-c3ccccc3)nn2)cc1OC,"10.3 µM [falling, single point]",-13.1,
COc1ccccc1NC(=O)COC(=O)c1cnc(C)cn1,,28.1,
O=C(CSc1c2c(nc3ccc(Cl)cc13)CCCC2)NCc1ccco1,,,"0.13 µM [rising, full curve, poor fit]"
CCC1CCCCN1S(=O)(=O)c1ccc2[nH]c(=O)ccc2c1 (centres undefined),"16.4 µM [falling, single point]",13.3,
Cc1cc(C(=O)NCC(=O)OC(C(=O)Nc2cc(C(F)(F)F)ccc2Cl)c2ccccc2)ccc1[N+](=O)[O-] (centres undefined),"1.64 µM [rising, partial curve]",,"1.46 µM [rising, partial curve]"
COc1ccc(CNC(=O)C(c2cccc(C)c2)N(C(=O)c2csnn2)C2CC2)cc1 (centres undefined),"1.84 µM [falling, partial curve]",,
COc1ccc(CC(=O)NCCc2cnc[nH]2)cc1,,-24.8,
Cc1cc(OCC(=O)O/N=C(\N)Cc2cccs2)ccc1Br,"23.1 µM [rising, single point]",113,
CC(=O)Nc1ccc(NC(=O)C(C)OC(=O)CC2CCCCC2)cc1 (centres undefined),,-2.36,
O=C(O)c1ccccc1C(=O)OCc1ccccc1,"2.59 µM [falling, partial curve]",-31.9,"1.46 µM [falling, full curve, poor fit]"
CCOC(=O)Cn1c(=O)c2c(nc(N3CCCCC3)n2Cc2ccccc2)n(C)c1=O,,-22.1,"0.00461 µM [falling, full curve, poor fit]"
O=C(NCc1cccnc1)C1CCCN(S(=O)(=O)c2ccccc2)C1 (centres undefined),"0.731 µM [falling, single point]",-6.74,
O=c1c2ccccc2nc(/C=C/c2ccc([N+](=O)[O-])cc2)n1CCCO,"11.6 µM [rising, partial curve]",7.33,
CSCCC(NC(=O)c1ccccc1)C(=O)N/N=C(\C)Cc1ccccc1 (centres undefined),,16.4,"3.26 µM [rising, single point]"
N#CCSc1nnc(-c2ccc3c(c2)OCO3)o1,"11.6 µM [rising, partial curve, poor fit]",12.6,

# Single values from the entries so far:
# AC50 [1] with Cc1cc(C(=O)NCC(=O)OC(C(=O)Nc2cc(C(F)(F)F)ccc2Cl)c2ccccc2)ccc1[N+](=O)[O-] (centres undefined) is entered as 1.64 µM [rising, partial curve]
# AC50 [2] with CCOC(=O)Cn1c(=O)c2c(nc(N3CCCCC3)n2Cc2ccccc2)n(C)c1=O is entered as 0.00461 µM [falling, full curve, poor fit]
